Binding data for 3 molecules are collected here from paper PMC11534217, “Direct activation of HSF1 by macromolecular crowding and misfolded proteins”.

The target of assay [1] is Heat shock factor protein 1 (HSF1), purified recombinant (human) (UniProt Q00613). Put plainly: condition: only normal conditions, without heat shock (monomer fraction of the SEC); SEC + native gel or EMSA; monomer fraction of purified HSF1 from Superdex 200 Increase (4°C, 25 mM HEPES pH 7.4, 0.3 M NaCl, 3 mM DTT, 10% glycerol), then Blue native PAGE and western blot; no heat shock; both purified. In general terms: Mobility shift assays separate free from complexed probe on a gel.

The target in another assay is mCherry-HSF1 (human) (UniProt Q00613). The assay can be described thus: condition: only cells treated with translation inhibitors together with the stress; native gel or EMSA; HR CNE of lysates of H1299 cells with mCherry-HSF1; stress (42°C, bortezomib 300 nM, AUY-922 300 nM, 1 h) together with translation inhibitors (cycloheximide 10 μg/ml, anisomycin 40 μM, rocaglamide 100 nM; mTOR inhibitors in Fig 5F).

The target of assay [2] is T1, Heat shock factor protein 1 (HSF1), purified recombinant (human), Q00613.
T1 chain: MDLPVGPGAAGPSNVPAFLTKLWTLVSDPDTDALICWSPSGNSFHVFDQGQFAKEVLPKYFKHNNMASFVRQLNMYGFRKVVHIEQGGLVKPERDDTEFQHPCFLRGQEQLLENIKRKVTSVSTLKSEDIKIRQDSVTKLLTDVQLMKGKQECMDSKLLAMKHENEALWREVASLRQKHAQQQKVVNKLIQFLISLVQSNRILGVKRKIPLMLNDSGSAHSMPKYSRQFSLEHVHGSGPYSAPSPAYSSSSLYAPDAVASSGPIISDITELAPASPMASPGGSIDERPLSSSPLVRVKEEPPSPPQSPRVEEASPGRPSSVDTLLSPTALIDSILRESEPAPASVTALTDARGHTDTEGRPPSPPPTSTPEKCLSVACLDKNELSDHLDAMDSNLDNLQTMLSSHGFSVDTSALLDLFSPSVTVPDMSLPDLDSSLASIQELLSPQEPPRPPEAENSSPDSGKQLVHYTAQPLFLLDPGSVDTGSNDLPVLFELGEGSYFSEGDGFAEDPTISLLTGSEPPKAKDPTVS
The assay can be described thus: HDX-MS; monomeric, trimeric and heat-treated (42°C, 20 min) HSF1, 2 μM; exchange at 4°C for 30, 600 and 3600 s; pepsin digestion; both purified. The note with it: remark: other sources report otherwise.

Results are given in words; binding and its absence hold for the method and conditions named. Some binding calls cover weakened binding; strength is not graded here.

In the case of “Heat shock factor protein 1 (HSF1), purified recombinant (from UniProt Q00613-1 1-529)”, in assay [1], the binding result is “no binding”. In the case of “mCherry-HSF1 (from UniProt Q00613-1 1-529)”, the binding result with mCherry-HSF1 (human) is “no binding”.

B1: Heat shock factor protein 1 (HSF1), purified recombinant, Q00613-1 1-529 (natural protein)
chain: MDLPVGPGAAGPSNVPAFLTKLWTLVSDPDTDALICWSPSGNSFHVFDQGQFAKEVLPKYFKHNNMASFVRQLNMYGFRKVVHIEQGGLVKPERDDTEFQHPCFLRGQEQLLENIKRKVTSVSTLKSEDIKIRQDSVTKLLTDVQLMKGKQECMDSKLLAMKHENEALWREVASLRQKHAQQQKVVNKLIQFLISLVQSNRILGVKRKIPLMLNDSGSAHSMPKYSRQFSLEHVHGSGPYSAPSPAYSSSSLYAPDAVASSGPIISDITELAPASPMASPGGSIDERPLSSSPLVRVKEEPPSPPQSPRVEEASPGRPSSVDTLLSPTALIDSILRESEPAPASVTALTDARGHTDTEGRPPSPPPTSTPEKCLSVACLDKNELSDHLDAMDSNLDNLQTMLSSHGFSVDTSALLDLFSPSVTVPDMSLPDLDSSLASIQELLSPQEPPRPPEAENSSPDSGKQLVHYTAQPLFLLDPGSVDTGSNDLPVLFELGEGSYFSEGDGFAEDPTISLLTGSEPPKAKDPTVS
Regarding B1, the binding result in assay [2] is listed as “binds”.
